Measured values reported in PMC6888615, “A Miniaturized Pump Out Method for Characterizing Molecule Interaction with ABC Transporters” (International Journal of Molecular Sciences, 2019).

tested on: MRPs; assay: Caco-2 pump out assay, CMFDA excretion; assay type: cell-based; conditions: Kout CMFDA 96-well / 384-well

In order of falling “Ratio Kout 96/384 wells, MRPs” value:
1. CN(C)C(=O)CCSC(SCCC(=O)O)c1cccc(C=Cc2ccc3ccc(Cl)cc3n2)c1 (centres unmarked) [MK571, 3-[[3-[2-(7-chloroquinolin-2-yl)vinyl]phenyl]-(2-dimethylcarbamoylethylsulfanyl)methylsulfanyl] propionic acid]  1.59
2. COc1cc2c(cc1OC)CN(CCc1ccc(NC(=O)c3cccc4c(=O)c5cccc(OC)c5[nH]c34)cc1)CC2 [elacridar]  1.27
3. CN(C)C(=O)C(CCN1CCC(O)(c2ccc(Cl)cc2)CC1)(c1ccccc1)c1ccccc1 [loperamide]  1.19
4. CCC1(c2ccccc2)C(=O)NC(=O)NC1=O [phenobarbital]  1.03
5. CO[C@H]1/C=C/O[C@@]2(C)Oc3c(C)c(O)c4c(O)c(c(/C=N/N5CCN(C)CC5)c(O)c4c3C2=O)NC(=O)/C(C)=C\C=C\[C@H](C)[C@H](O)[C@@H](C)[C@@H](O)[C@@H](C)[C@H](OC(C)=O)[C@@H]1C [rifampicin]  0.99
6. CC[C@]1(O)C[C@@H]2CN(CCc3c([nH]c4ccccc34)[C@@](C(=O)OC)(c3cc4c(cc3OC)N(C)[C@H]3[C@@](O)(C(=O)OC)[C@H](OC(C)=O)[C@]5(CC)C=CCN6CC[C@]43[C@@H]65)C2)C1 [vinblastine]  0.95
7. COc1cccc2c1C(=O)c1c(O)c3c(c(O)c1C2=O)C[C@@](O)(C(=O)CO)C[C@@H]3O[C@H]1C[C@H](N)[C@H](O)[C@H](C)O1 [doxorubicin]  0.82
8. CC(=O)Nc1ccc(O)cc1 [acetanomiphen]  0.76
